Reference: patent US20210130826A1, “METHODS OF MODULATING ANTISENSE ACTIVITY” (IONIS PHARMACEUTICALS, INC., priority 2018, published 2021)
At least one compound was matched to its structure with a doubt left.

Experiments:
Malat-1 [1] = assay: Malat-1 RNA by RT-qPCR in MHT cells; autophagy modulator, then oligonucleotide by free uptake; assay type: cell-based, mouse; conditions: MOE gapmer 399462, relative to DMSO
Description: MHT cells (a mouse hepatocellular carcinoma cell line) were plated at 20,000 cells/well and treated with DMSO (control) or an autophagy modulator for 24 hours at the concentrations indicated in Table 2 below. 3-MA, BafA1, AZD8055, and leupeptin are […]. […] Fourteen hours after the addition of autophagy modulators, 10 μM of a modified control oligonucleotide or of a modified antisense oligonucleotide was added by free uptake for ten hours. The modified oligonucleotides, shown in Table 1 below, are 3-10-3 cEt gapmers in which every internucleoside linkage is a phosphorothioate internucleoside linkage. The three 5′-terminal nucleosides and the three 3′-terminal nucleosides of each oligonucleotide each comprise a cEt modified sugar moiety. The remaining ten nucleosides of each oligonucleotide each comprise an unmodified, 2′-deoxy sugar moiety.
Using the primer probe sets described in Table 3 below, RT-qPCR analysis was performed to detect RNA levels of Malat-1, shown in Table 4 and markers of autophagy, (Rab7, LAMP2, Atg7, ULK1, ULK2, Atg5, Beclin, and c-Jun), shown in Table 5. Results were normalized to cyclophilin A levels. […]

Malat-1 [2] = assay: Malat-1 RNA by RT-qPCR in A431 cells; assay type: cell-based, human; conditions: MOE gapmer
Description: RT-qPCR analysis was performed to detect RNA levels of Malat-1 using primer probe set RTS2736. Results were normalized to cyclophilin A levels (measured using HTS3936). […] Each table below represents results from an individual assay.

Structure (SMILES) | effect of autophagy modulator on modified oligonucleotide activity (in words) (Malat-1 [1]) | effect of autophagy modulator on modified oligonucleotide activity (in words) (Malat-1 [2])
COC[C@H]1OC(=O)c2coc3c2[C@@]1(C)C1=C(C3=O)[C@@H]2CCC(=O)[C@@]2(C)C[C@H]1OC(C)=O [wortmannin] | reduced activity of modified oligonucleotide | –
CO[C@H]1C[C@@H]2CC[C@@H](C)[C@@](O)(O2)C(=O)C(=O)N2CCCC[C@H]2C(=O)O[C@H]([C@H](C)C[C@@H]2CC[C@@H](O)[C@H](OC)C2)CC(=O)[C@H](C)/C=C(\C)[C@@H](O)[C@@H](OC)C(=O)[C@H](C)C[C@H](C)/C=C/C=C/C=C/1C [Rapamycin] | significantly enhanced modified oligonucleotide activity | significantly enhanced modified oligonucleotide activity
